Source: publication PMC7819943, “Rice protein-binding microarrays: a tool to detect cis-acting elements near promoter regions in rice”
The list shows a part of the results.

By UniProt entry, the sequences of proteins in these tests, tags left out.
UniProt Q0JBA9, entry or part of it: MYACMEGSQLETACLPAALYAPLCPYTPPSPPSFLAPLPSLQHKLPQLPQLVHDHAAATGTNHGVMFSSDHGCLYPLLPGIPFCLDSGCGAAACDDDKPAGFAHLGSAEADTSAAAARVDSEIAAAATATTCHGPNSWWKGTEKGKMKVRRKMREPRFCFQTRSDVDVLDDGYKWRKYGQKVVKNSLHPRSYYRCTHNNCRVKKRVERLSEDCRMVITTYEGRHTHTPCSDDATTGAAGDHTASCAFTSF

Target: OsWRKY34 (Oryza sativa, UniProt Q0JBA9 1-250)
Test: protein-binding microarray (RPBM); PBS, 2% BSA, 51.3 ng/ul salmon testes DNA, 50 uM zinc acetate, 200 nM TF, 25 C, 1 h; high values mean tight binding
Conditions: protein: recombinant; tags: N-terminal polyhistidine and DsRed monomer fusion (pET32a); label: CyDye5-dUTP incorporated in the synthesized complementary strand; 3' TTTTT single-stranded linker to array surface; dsDNA, one strand shown
How it was run: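 An Axon 4000B scanner gave the binding signal as per-feature fluorescence intensity in arbitrary units. This followed washing of a custom Agilent array that had been incubated for 1 h at 25 °C with 200 nM protein in PBS, 2% BSA, salmon testes DNA and 50 µM zinc acetate. The proteins were transcription factors fused at the N-terminus to polyhistidine and DsRed, expressed in E. coli BL21-CodonPlus and purified on Ni–NTA.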

Row | Sequence | binding signal
1 | GCCCCTCTCGCCGGCCGCCGACCCGCCCCTGCTGCTCACCCGGAGTCACCTAGTGCAG | 8900 fluorescence intensity (a.u.)
2 | AAAACATTCGCAATATGGCCTCTTGCATTCAATTTAGATTCGGAGTCACCTAGTGCAG | 8390 fluorescence intensity (a.u.)
3 | TACTTTTAGTAGATGGGTTGGTGATTATTTTTTCAATGTACGGAGTCACCTAGTGCAG | 10700 fluorescence intensity (a.u.)
4 | TCGCGGGGATGTTCGGCTGTTTCGGTTTCGGCCTGCGTAACGGAGTCACCTAGTGCAG | 8880 fluorescence intensity (a.u.)
5 | TTACTCTGCAAGGTACTCTCATCTTGGATCACTTGATTTTCGGAGTCACCTAGTGCAG | 8170 fluorescence intensity (a.u.)
6 | TCGTGAACGCCATCACCCATCAGTTTCCTCGTCCTTGCCTCGGAGTCACCTAGTGCAG | 10100 fluorescence intensity (a.u.)
7 | CTTTCCGTTATCTCTCTCCTCTATTGCAGCCGCCGCCGCTCGGAGTCACCTAGTGCAG | 9610 fluorescence intensity (a.u.)
8 | TCGAATATCTCTCTTACTCACTACTCGGCATCATAGTTCACGGAGTCACCTAGTGCAG | 8640 fluorescence intensity (a.u.)
9 | CCTCTTCATTTTTCCTCGACGGCCCAGCTCCCTCGACCAACGGAGTCACCTAGTGCAG | 9920 fluorescence intensity (a.u.)
10 | CTGCTCATATTTGCTCTAGTGTAACTACTTATGCTCCAAACGGAGTCACCTAGTGCAG | 8720 fluorescence intensity (a.u.)
11 | TAATGTATGACGCCGTTGACTTTTTGATTAACGTTTGACCCGGAGTCACCTAGTGCAG | 34800 fluorescence intensity (a.u.)
12 | CATCCTCCTTTTAGCTTTGCTTAATTGTGCCGCTATAGATCGGAGTCACCTAGTGCAG | 8480 fluorescence intensity (a.u.)
13 | ACGGGGACAGGGAGAGGAGCGGGGATTTTGTGGCGGGAGACGGAGTCACCTAGTGCAG | 9460 fluorescence intensity (a.u.)
14 | ACCACAATGTACTTTTTCTCCCACGCATACAGTTCCCAAACGGAGTCACCTAGTGCAG | 8250 fluorescence intensity (a.u.)
15 | TATCTTTTTATTTTTTTTTCGGGATCAAATTATCATATAACGGAGTCACCTAGTGCAG | 8090 fluorescence intensity (a.u.)
16 | CAGAACCAGGTTTTGCCTTGTTGCACATCCTTCTAGCTTCCGGAGTCACCTAGTGCAG | 8270 fluorescence intensity (a.u.)
17 | CTCTATCACTCGCTCTTCCGACCACGCCTCATCCGCCATGCGGAGTCACCTAGTGCAG | 8860 fluorescence intensity (a.u.)
18 | AGCTCTCACCATTCATTCCACTATACAAGCCTAAGGCAGCCGGAGTCACCTAGTGCAG | 8430 fluorescence intensity (a.u.)
19 | GTTTGACTGCTAGTGCATTAATCAGATTTAAACTTACAATCGGAGTCACCTAGTGCAG | 9290 fluorescence intensity (a.u.)
20 | GGTTAGGAAGAAGGATGGTACTTGGAGATTGGTCATTGACCGGAGTCACCTAGTGCAG | 9440 fluorescence intensity (a.u.)
21 | ACGTACATTTAAGTTTGGCATTGAAGTAGCTCATGTTATGCGGAGTCACCTAGTGCAG | 8800 fluorescence intensity (a.u.)

2 entries picked at random from the list so far:
Row | Sequence | binding signal
17 | CTCTATCACTCGCTCTTCCGACCACGCCTCATCCGCCATGCGGAGTCACCTAGTGCAG | 8860 fluorescence intensity (a.u.)
15 | TATCTTTTTATTTTTTTTTCGGGATCAAATTATCATATAACGGAGTCACCTAGTGCAG | 8090 fluorescence intensity (a.u.)

(further entries)

Row | Sequence | binding signal
22 | AAAGTCGTGTAACTTCATTGACGTTGGCATATTGTACTATCGGAGTCACCTAGTGCAG | 8670 fluorescence intensity (a.u.)
23 | CCGGTCCACTCACCCCTAACCCTAGCCGCTGCTGCCCGTCCGGAGTCACCTAGTGCAG | 9170 fluorescence intensity (a.u.)
24 | GAACAGCCCACATGGCACAACCACGAATTTTGGCCCACATCGGAGTCACCTAGTGCAG | 8660 fluorescence intensity (a.u.)
25 | CTCTTGATACCTAGCTAGGTTCCATTTCTCACTATCCTCTCGGAGTCACCTAGTGCAG | 11000 fluorescence intensity (a.u.)
26 | GCATAGAGTACTTGAACTGTTGAAACCAGATCACTTTACACGGAGTCACCTAGTGCAG | 8300 fluorescence intensity (a.u.)
27 | CGTCATCGTCGCCGCGCGTTCACACCAAGCTATAGCCACCCGGAGTCACCTAGTGCAG | 9680 fluorescence intensity (a.u.)
28 | GTTTGGTTCACGGTCATGTATGGATAGGATATGGCCATTCCGGAGTCACCTAGTGCAG | 8070 fluorescence intensity (a.u.)
29 | TTCATATTATAAGACTTTCTAGCATTGTTTATATTCATTTCGGAGTCACCTAGTGCAG | 8310 fluorescence intensity (a.u.)
30 | CTATCGTCATCCTCGCGATCGCCGCATTCATCCATCCACTCGGAGTCACCTAGTGCAG | 12800 fluorescence intensity (a.u.)
31 | CTGCAACAATTTGTCCTTTTCATTTGTCTTGCAGTTCTTGCGGAGTCACCTAGTGCAG | 10100 fluorescence intensity (a.u.)
32 | ACTGGACTATTTTTTTTTCGCGGCAAATCCATATCACTGCCGGAGTCACCTAGTGCAG | 8880 fluorescence intensity (a.u.)
33 | AATTGTAAAGTTGACTTTAATGTTTTTTTTATTGTGGTTTCGGAGTCACCTAGTGCAG | 8740 fluorescence intensity (a.u.)
34 | CCATCTCCTTCAGCCTTCGCTTCATCTGGTCGAGCTCCTGCGGAGTCACCTAGTGCAG | 9080 fluorescence intensity (a.u.)
35 | GCAAGTTCATGATCTACACTATTACACTCACTTCTACTAACGGAGTCACCTAGTGCAG | 8730 fluorescence intensity (a.u.)
36 | GCTTATTGGGTATTTTGGTTTGACACTGCTTCACGCCCAACGGAGTCACCTAGTGCAG | 10500 fluorescence intensity (a.u.)
37 | CGAGCTCTCTCCTTCCTTGTCTCGGGTCTCGGCATTGCATCGGAGTCACCTAGTGCAG | 9920 fluorescence intensity (a.u.)
38 | CTTCAGTTCAATATTCTTCCCCACTAGATATCCTCTTGTCCGGAGTCACCTAGTGCAG | 8160 fluorescence intensity (a.u.)
39 | TCAGATACCCAGTATGCTCAAGCTCAGCTCTTGGACACCGCGGAGTCACCTAGTGCAG | 8240 fluorescence intensity (a.u.)
40 | AAATCCTGATTCCGATTGCTTTTTACCTCCTGTTCTTATACGGAGTCACCTAGTGCAG | 10300 fluorescence intensity (a.u.)
41 | GTCTTGCGTGTTTGTATAATGATATATTTCTTATTAATCTCGGAGTCACCTAGTGCAG | 10000 fluorescence intensity (a.u.)
42 | GGTCGTGTCAAGTTCCAGCCTTAACAGCGAAGCAAAACATCGGAGTCACCTAGTGCAG | 8040 fluorescence intensity (a.u.)
